Key:
[1] = general procedure: Fmoc solid-phase peptide synthesis; 2-chlorotritylchloride resin; Diisopropyl carbodiimide and N-hydroxybenzotriazole; conditions: whole synthesis, reverse HPLC, acetate salt
peptide synthesis = conditions: whole synthesis, acetate salt

| Substance | final HPLC purity [1] | final HPLC purity (peptide synthesis) |
| --- | --- | --- |
| Cyclo(4-amino butyric acid-GQRETPEGAEAKPWYD) | 99% |  |
| Cyclo(CGQREAPAGAAAKPWYC) (cyclic; cyclic peptide with disulfide bridge; DISULFIDE (1)..(17)) |  | 95% |
| Cyclo(CGQRETPEGAEAKPWYC) | 96.3% |  |
| Cyclo(KGQRETPEGAEAKPWYG) | 98.8% |  |
| Cyclo(KSPGQRETPEGAEAKPWYE) | 96.3% |  |
| Cyclo(ornithine-GQRETPEGAEAKPWYG) | 97.4% |  |
| Cyclo(β-alanine-GQRETPEGAEAKPWYE) | 99% |  |

Reference: patent publication US10711041B2 (priority 2013, dated 2020)
